Measured values published in paper PMC10562560, “Molecular basis for cellular retinoic acid-binding protein 1 in modulating CaMKII activation” (Frontiers in Molecular Biosciences, 2023).
No constants are given. Whether binding was seen depends on the method and setting. In cells and extracts the contact can be indirect. Some binding calls cover weakened binding; strength is not graded here.

The chains behind the UniProt entries cited, without tags or fusion partners. Residues count along the entry.
UniProt P62965, residues 2-137: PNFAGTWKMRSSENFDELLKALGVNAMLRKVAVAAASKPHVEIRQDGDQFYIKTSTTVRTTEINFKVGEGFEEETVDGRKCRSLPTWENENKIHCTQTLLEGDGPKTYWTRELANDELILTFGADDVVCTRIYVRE
UniProt P08413: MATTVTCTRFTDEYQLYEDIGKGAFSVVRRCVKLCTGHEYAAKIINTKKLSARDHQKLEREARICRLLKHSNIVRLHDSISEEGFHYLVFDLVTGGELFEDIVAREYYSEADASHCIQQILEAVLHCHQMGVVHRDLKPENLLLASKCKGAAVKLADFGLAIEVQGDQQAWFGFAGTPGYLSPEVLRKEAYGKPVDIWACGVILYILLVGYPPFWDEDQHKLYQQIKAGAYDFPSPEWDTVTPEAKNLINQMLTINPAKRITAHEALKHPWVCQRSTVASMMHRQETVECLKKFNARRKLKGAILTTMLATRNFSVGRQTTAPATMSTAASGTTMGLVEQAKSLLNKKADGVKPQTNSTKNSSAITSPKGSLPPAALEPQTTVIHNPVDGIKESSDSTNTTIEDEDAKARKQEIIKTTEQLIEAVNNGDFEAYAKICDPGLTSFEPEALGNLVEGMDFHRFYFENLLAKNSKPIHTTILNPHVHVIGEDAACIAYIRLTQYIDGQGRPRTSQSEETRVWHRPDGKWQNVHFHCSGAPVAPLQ

Biological target: His-tagged wild-type (WT) CRABP1 (Mus musculus) (UniProt P62965)
Assay: pull-down; purified His-CRABP1 (WT or mutant, 5 uM) held on Ni-NTA resin as bait; 250 ug pre-cleared lysate of HEK293T cells expressing GFP-CaMKII (DMSO or ionomycin 10 uM, 10 min) as prey; 50 mM Tris pH 8.0, 150 mM NaCl, 0.2% NP-40, 20% glycerol, 200 mM imidazole, overnight at 4°C; Western blot with anti-GFP and anti-His; densitometry gives the CCI (n = 5); only the target purified

binding: binds
Substance: GFP-CaMKII beta, active (pCaMKII T287, from ionomycin-stimulated HEK293T cells) (from UniProt P08413 1-542) (enzyme)
